Measured values from PubChem BioAssay AID190 (DTP/NCI, 2004).
The list shows only some results of the screen, not a fair sample: it is rich in T/C values a quarter to a half above the control, in often repeated tests (any T/C) and in doses without a T/C. Further doses and runs are listed elsewhere. T/C: endpoint of the treated group in % of that of the vehicle group. Some doses have a count of surviving animals in place of a T/C: the source holds a T/C of zero for them, seemingly a mark for toxic or unscored doses. Some survivor counts are full or nearly so, which does not show that the dose was tolerated: the source hardly ever lists a survival T/C far under the control, and the zero likely stands for such cases as well. Survivors were counted at the toxicity check, usually on the fifth day, unless a day is given; later deaths do not show. Schedule codes are those of the source, taken here to give the interval after Q, in days (D) or hours (H), and the number of doses after X. Some doses were run more than once; the results are listed from low to high. Where survival is the endpoint, this PubChem deposit counts one and a half times the control or more as active, and values a quarter to a half above the control carry no call in these data; other NCI protocols may use other cut-offs. Some T/C values carry the count of animals alive at the toxicity check (mostly the fifth day); without a count, all were alive then.

System: AKR/Lw mice, AKR lymphoma ip, median survival T/C
Experiment: NCI In Vivo Anticancer Drug Screen. Data for tumor model Lymphoma AKR (Transplanted) (intraperitoneal) in AKR/Lw mice
Conditions: T/C endpoint: median survival time, higher T/C = longer survival
Protocol: The antitumor activity of compounds was measured in mice bearing transplantable tumors. Survival or tumor size were measured and the results are expressed as the measurement made in the treated group (T) divided by the measurement made in the vehicle treated control group (C). The tumor model used in this assay is Lymphoma AKR (Transplanted) (intraperitoneal) in AKR/Lw mice

[1] = dose: 0.12 mg/kg/injection, schedule: Q04DX003 (ip), vehicle: saline
[2] = dose: 0.25 mg/kg/injection, schedule: Q01DX001 (ip), vehicle: saline
[3] = dose: 0.25 mg/kg/injection, schedule: Q04DX003 (ip), vehicle: saline
[4] = dose: 0.5 mg/kg/injection, schedule: Q01DX001 (ip), vehicle: saline
[5] = dose: 0.5 mg/kg/injection, schedule: Q04DX003 (ip), vehicle: saline
[6] = dose: 1.0 mg/kg/injection, schedule: Q01DX001 (ip), vehicle: saline
[7] = dose: 5.0 micrograms/kg/injection, schedule: Q01DX009 (ip), vehicle: saline
[8] = dose: 10.0 micrograms/kg/injection, schedule: Q01DX009 (ip), vehicle: saline
[9] = dose: 400.0 mg/kg/injection, schedule: Q01DX001 (ip), vehicle: Klucel (hydroxypropylcellulose) (HPC)

## CC[C@]1(O)C[C@H]2CN(CCc3c([nH]c4ccccc34)[C@@](C(=O)OC)(c3cc4c(cc3OC)N(C=O)[C@H]3[C@@](O)(C(=O)OC)[C@H](OC(C)=O)[C@]5(CC)C=CCN6CC[C@]43[C@@H]65)C2)C1
dose: 0.05 mg/kg/injection, schedule: Q01DX009 (ip), vehicle: saline
  survivor count: 10 of 10
dose: 0.05 mg/kg/injection, schedule: Q10DX002 (ip), vehicle: saline, evaluated on day 5
  T/C: 125 % of control
dose: 0.05 mg/kg/injection, schedule: Q10DX002 (ip), vehicle: saline, evaluated on day 60
  T/C: 125 % of control [9 of 10 alive]
dose: 0.06 mg/kg/injection, schedule: Q04DX003 (ip), vehicle: saline
  survivor count: 7 of 10
dose: 0.1 mg/kg/injection, schedule: Q01DX009 (ip), vehicle: saline
  survivor count: 9 of 10
dose: 0.1 mg/kg/injection, schedule: Q10DX002 (ip), vehicle: saline, evaluated on day 5
  T/C: 131 % of control
dose: 0.1 mg/kg/injection, schedule: Q10DX002 (ip), vehicle: saline, evaluated on day 60
  T/C: 131 % of control [8 of 10 alive]
dose: 0.12 mg/kg/injection, schedule: Q01DX009 (ip), vehicle: saline
  survivor count: 7 of 10
dose: 0.12 mg/kg/injection, schedule: Q04DX002 (ip), vehicle: saline, evaluated on day 5
  T/C: 126 % of control
dose: 0.12 mg/kg/injection, schedule: Q04DX002 (ip), vehicle: saline, evaluated on day 60
  T/C: 126 % of control
[1]
  T/C: 100, 111, 117 [9 of 10 alive], 118, 131, 134 [9 of 10 alive], 151, 196 % of control
  survivor count: 10 of 10
dose: 0.2 mg/kg/injection, schedule: Q01DX009 (ip), vehicle: saline
  survivor count: 10 of 10
[2]
  T/C: 106 [9 of 10 alive], 115, 119, 120 % of control
  survivor count: 6 of 10
dose: 0.25 mg/kg/injection, schedule: Q01DX009 (ip), vehicle: saline
  survivor count: 3 of 10
dose: 0.25 mg/kg/injection, schedule: Q04DX002 (ip), vehicle: saline, evaluated on day 5
  T/C: 125 % of control
dose: 0.25 mg/kg/injection, schedule: Q04DX002 (ip), vehicle: saline, evaluated on day 60
  T/C: 125 % of control [9 of 10 alive]
dose: 0.25 mg/kg/injection, schedule: Q04DX002 (ip), vehicle: water, evaluated on day 4
  T/C: 131 % of control
dose: 0.25 mg/kg/injection, schedule: Q04DX002 (ip), vehicle: water, evaluated on day 60
  T/C: 125 % of control
[3]
  T/C: 87 [8 of 10 alive], 94, 105, 107, 127, 128, 130 [8 of 10 alive], 186, 206 % of control
  survivor count: 8 of 10
dose: 0.25 mg/kg/injection, schedule: Q10DX002 (ip), vehicle: saline, evaluated on day 5
  T/C: 141 % of control
dose: 0.25 mg/kg/injection, schedule: Q10DX002 (ip), vehicle: saline, evaluated on day 60
  T/C: 141 % of control
[4]
  T/C: 108 [9 of 10 alive], 111, 118, 123, 125, 130, 132, 132 % of control [9 of 10 alive]
  survivor count: 4 of 10
dose: 0.5 mg/kg/injection, schedule: Q01DX009 (ip), vehicle: saline
  survivor count: 0 of 10 and 10 of 10
[5]
  T/C: 90, 92, 100 [9 of 10 alive], 113, 141, 253 % of control
  survivor count: 8 of 10 and 10 of 10
dose: 0.5 mg/kg/injection, schedule: Q10DX002 (ip), vehicle: saline, evaluated on day 5
  T/C: 131 % of control
dose: 0.5 mg/kg/injection, schedule: Q10DX002 (ip), vehicle: saline, evaluated on day 60
  T/C: 131 % of control
dose: 0.75 mg/kg/injection, schedule: Q04DX003 (ip), vehicle: saline
  survivor count: 9 of 10 and 10 of 10
[6]
  T/C: 123 [8 of 10 alive], 139, 141, 143, 161 % of control
  survivor count: 8 of 10
dose: 1.0 mg/kg/injection, schedule: Q04DX003 (ip), vehicle: saline
  survivor count: 3 of 10
dose: 1.0 mg/kg/injection, schedule: Q10DX002 (ip), vehicle: saline
  survivor count: 6 of 10
dose: 1.5 mg/kg/injection, schedule: Q01DX001 (ip), vehicle: saline
  T/C: 141 [9 of 10 alive] and 146 % of control
dose: 1.5 mg/kg/injection, schedule: Q04DX003 (ip), vehicle: saline
  survivor count: 9 of 10
dose: 1.5 mg/kg/injection, schedule: Q10DX002 (ip), vehicle: saline
  survivor count: 9 of 10
dose: 2.0 mg/kg/injection, schedule: Q01DX001 (ip), vehicle: saline
  survivor count: 3 of 10, 4 of 10, 5 of 10
dose: 2.0 mg/kg/injection, schedule: Q04DX003 (ip), vehicle: saline
  survivor count: 4 of 10 and 10 of 10
dose: 3.0 mg/kg/injection, schedule: Q04DX003 (ip), vehicle: saline
  survivor count: 5 of 10
dose: 4.0 mg/kg/injection, schedule: Q04DX003 (ip), vehicle: saline
  survivor count: 10 of 10
dose: 0.6 micrograms/kg/injection, schedule: Q01DX009 (ip), vehicle: saline
  survivor count: 10 of 10
dose: 1.2 micrograms/kg/injection, schedule: Q01DX009 (ip), vehicle: saline
  survivor count: 9 of 10
dose: 1.5 micrograms/kg/injection, schedule: Q01DX009 (ip), vehicle: saline
  survivor count: 10 of 10
dose: 2.5 micrograms/kg/injection, schedule: Q01DX009 (ip), vehicle: saline
  survivor count: 5 of 10 and 6 of 10
dose: 3.0 micrograms/kg/injection, schedule: Q01DX009 (ip), vehicle: saline
  survivor count: 8 of 10 and 10 of 10
[7]
  T/C: 93 [8 of 10 alive], 114, 121, 135 % of control
  survivor count: 1 of 10
dose: 6.0 micrograms/kg/injection, schedule: Q01DX009 (ip), vehicle: saline
  survivor count: 10 of 10
[8]
  T/C: 88 [9 of 10 alive], 90 [8 of 10 alive], 94 [9 of 10 alive], 106 % of control
  survivor count: 0 of 10
dose: 12.0 micrograms/kg/injection, schedule: Q01DX009 (ip), vehicle: saline
  survivor count: 10 of 10
dose: 20.0 micrograms/kg/injection, schedule: Q01DX009 (ip), vehicle: saline
  survivor count: 10 of 10
dose: 25.0 micrograms/kg/injection, schedule: Q01DX009 (ip), vehicle: saline
  survivor count: 10 of 10
dose: 50.0 micrograms/kg/injection, schedule: Q01DX009 (ip), vehicle: saline
  survivor count: 9 of 10

## O=C(c1ccccc1)C1CCC1
[9]
  survivor count: 10 of 10

## COC(=O)C1(C)CCC(c2ccc(OC)cc2)C(CC(=O)O)C1=O (stereo not given)
dose: 200.0 mg/kg/injection, schedule: Q04DX003 (ip), vehicle: Klucel (hydroxypropylcellulose) (HPC)
  survivor count: 9 of 10

## CCOC(=O)c1ccc(NCC(C)(C)[N+](=O)[O-])cc1
dose: 200.0 mg/kg/injection, schedule: Q01DX001 (ip), vehicle: saline
  survivor count: 10 of 10

## COc1ccc(NC(=S)Nc2ccccn2)cc1
dose: 200.0 mg/kg/injection, schedule: Q01DX001 (ip), vehicle: Klucel (hydroxypropylcellulose) (HPC)
  survivor count: 5 of 10
[9]
  survivor count: 10 of 10

## COc1cc([C@@H]2c3cc4c(cc3[C@@H](OC3OC5COC(C)OC5C(O)C3O)[C@H]3COC(=O)[C@H]23)OCO4)cc(OC)c1O (stereo not given in full)
dose: 10.0 mg/kg/injection, schedule: Q01DX009 (ip), vehicle: Klucel (hydroxypropylcellulose) (HPC)
  survivor count: 9 of 10
dose: 20.0 mg/kg/injection, schedule: Q01DX009 (ip), vehicle: Klucel (hydroxypropylcellulose) (HPC)
  survivor count: 10 of 10
dose: 40.0 mg/kg/injection, schedule: Q01DX009 (ip), vehicle: Klucel (hydroxypropylcellulose) (HPC)
  survivor count: 2 of 10
